Among the data in publication doi:10.1101/2025.11.17.688879 are binding values, retold here.

No constants are given. Whether binding was seen depends on the method and setting. Binding seen in cells or lysates may run through a third protein. Some entries that bind do so weakly or less than the wild type. Tags and fused reporters may be left off the sequences shown.

The assay has as its target T1, NvFADS-FLAG (FADS-like desaturase of Nematostella vectensis) (Nematostella vectensis).
T1 sequence: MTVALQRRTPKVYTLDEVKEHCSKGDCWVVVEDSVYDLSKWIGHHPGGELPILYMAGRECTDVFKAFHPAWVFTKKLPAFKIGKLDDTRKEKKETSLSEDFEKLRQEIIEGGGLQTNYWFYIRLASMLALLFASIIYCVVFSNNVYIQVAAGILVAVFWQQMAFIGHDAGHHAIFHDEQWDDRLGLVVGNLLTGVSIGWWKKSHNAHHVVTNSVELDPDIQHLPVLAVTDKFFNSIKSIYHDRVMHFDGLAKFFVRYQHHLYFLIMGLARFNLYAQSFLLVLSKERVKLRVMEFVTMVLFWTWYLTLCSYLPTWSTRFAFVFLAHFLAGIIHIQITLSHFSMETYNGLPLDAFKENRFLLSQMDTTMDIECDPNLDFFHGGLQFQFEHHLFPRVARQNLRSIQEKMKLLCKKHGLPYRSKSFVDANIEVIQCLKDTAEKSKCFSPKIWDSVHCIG
The assay is described as follows: co-IP.

B1: HA-NvSTING (STING of Nematostella vectensis), expressed in HEK 293T (protein)
chain: MRRAEENNGFGTIPKRRNQHTPFYASIGMIVVIIVAFTSYHITSYGDDRNRAMRQYSFTFSLAYLAFLVGELLRRCCLFAEEYRHIETRYNGSLKKAIQTTFSFGHNNVLFVASLLFFVVFVASNDPNGSSSVIQGNSTAEPHTEMRQTSGWQGLWGQFIISALLTPLVVHLLGLRELSKVEESQLNEKENKNVADGLAWSYYFGYLKFVLPELEKQIEKTSKFRSKEKFVKKMFILIPSNCFWDDKIPGSDYDPQNRITFEGNTEPLEKTRGGVFLRHYKHSVYEIKDGENEPWFCIMEYATPLLTLYDMSVAQPGELSREERDAQVVVFLRKLQDILEGDRACQGKYELVTFSPDRDLADVMLRKLKDSELEIGG
As for B1, the binding result was “binds”.
